Results are given in words; binding and its absence hold for the method and conditions named. Some entries that bind do so weakly or less than the wild type.
Molecular target: menin Δ460-519/ 586-615 (human) (UniProt O00255)
Assay: SEC-MALS

B1: menin Δ460-519/ 586-615 (natural protein)
chain: MGLKAAQKTLFPLRSIDDVVRLFAAELGREEPDLVLLSLVLGFVEHFLAVNRVIPTNVPELTFQPSPAPDPPGGLTYFPVADLSIIAALYARFTAQIRGAVDLSLYPREGGVSSRELVKKVSDVIWNSLSRSYFKDRAHIQSLFSFITGTKLDSSGVAFAVVGACQALGLRDVHLALSEDHAWVVFGPNGEQTAEVTWHGKGNEDRRGQTVNAGVAERSWLYLKGSYMRCDRKMEVAFMVCAINPSIDLHTDSLELLQLQQKLLWLLYDLGHLERYPMALGNLADLEELEPTPGRPDPLTLYHKGIASAKTYYRDEHIYPYMYLAGYHCRNRNVREALQAWADTATVIQDYNYCREDEEIYKEFFEVANDVIPNLLKEAASLLEAGEERPGEQSQGTQSQGSALQDPECFAHLLRFYDGICKWEEGSPTPVLHVGWATFLVQSLGRFEGQVRQKVRIVSGTVAGTARGPEGGSTAQVPAPTASPPPEGPVLTFQSEKMKGMKELLVATKINSSAIKLQLTAQSQV
modifications: RED-NHS 2nd generation dye label on the labelled partner in the MST experiments
binding: binds

From publication doi:10.1101/2023.08.04.551977 (bioRxiv, 2023)
